Results taken from patent US11008339B2, “Substituted pyrazole compounds containing pyrimidine and preparation method and use thereof” (Shenyang Sinochem Agrochemicals R&D Co., Ltd., priority 2015, dated 2021).
Read-outs that look alike come from different tables or passages of the source. Some of these results come from one statement about several compounds together. For some of these results: At least one structure is not confirmed: it was looked up by name or label, or the drawing left a doubt.

Legend:
rice blast = format: cell-based; conditions: in vitro, 24 hours
wheat powdery mildew = experiment: Protective activity in vivo (whole plant spray) against wheat powdery mildew
Method: (§1) The method is as followed: The whole plant is used in this test. The compound is dissolved in a proper solvent to get mother solution. The proper solvent is selected from acetone, methanol, DMF and so on according to their dissolving capability to the sample. The volume rate of solvent and testing solution (v/v) is equal to or less than 5%. […] The testing solution is sprayed to the host plant by a special plant sprayer. The plant is inoculated with fungus after 24 hours. According to the infecting characteristic of fungus, the plant is stored in a humidity chamber and then transferred into greenhouse after infection is finished. And the other plants are placed in greenhouse directly.

cucumber downy mildew = experiment: Protective activity in vivo (whole plant spray) against cucumber downy mildew
Method: as §1

cucumber anthracnose = experiment: Protective activity in vivo (whole plant spray) against cucumber anthracnose
Method: as §1

carmine spider mite = experiment: Bioactivity test against carmine spider mite (airbrush spray); format: in vivo; conditions: mortality after 72 hrs
Method: (§2) Compounds were dissolved in mixed solvent (acetone:methanol=1:1), and diluted to required concentration with water containing 0.1% of tween 80.
(§3) Diamond back moth, armyworm, peach aphid and carmine spider mite were used as targets and the method of spraying by airbrush was used for determination of insecticidal biassays.
The method: Broadbean shoots with two true leaves in pot were taken, the healthy adults of carmine spider mite were inoculated to the leaves. The adults were counted and then sprayed with airbrush at the pressure of 0.7 kg/cm^2 and at dose of 0.5 ml. 3 replicates were set for each treatment. And then they were maintained in standard observation room. Scores were conducted and mortalities were calculated after 72 hrs.

[1] = system: Green peach aphids (Myzus Persicae Sulzer); experiment: Bioactivity test against green peach aphid (airbrush foliar spray); format: in vivo; conditions: death rate after 48 h
Method: as §2, §3
Method: Filter papers were put in culture dishes (Diameter=6 cm), and water was dripped on filter papers for preserving moisture. Green peach aphids (Myzus Persicae Sulzer) were maintained on cabbage. Leaves (Diameter=3 cm) of approximately 15-30 aphids were put in the culture dishes. Bioactivity tests were used the method of Airbrush Foliar Spray, pressure=10 psi (0.7 kg/cm2), spray volume=0.5 mL. The studies were conducted at […] 25±1 C in incubator cabinets with 60±5% RH. Survey the survival aphids after 48 h and calculate the death rates.

corn rust = experiment: Protective activity in vivo (whole plant spray) against corn rust
Method: as §1

FC(F)(F)c1ccc(-n2ccc(OCCNc3ncnc4ccccc34)n2)cc1 [Compound 40-69]
more than 80%: inhibition rate against rice blast (rice blast; 25 ppm)

Cc1ccc(-n2ccc(OCCNc3ncnc4ccccc34)n2)cc1 [Compound 40-57]
more than 80%: inhibition rate against rice blast (rice blast; 8.3 ppm) | inhibition rate against rice blast (rice blast; 25 ppm)

Fc1ccc(-n2ccc(OCCNc3ncnc4ccccc34)n2)cc1 [Compound 40-4]
more than 80%: inhibition rate against rice blast (rice blast; 8.3 ppm) | inhibition rate against rice blast (rice blast; 25 ppm)

Fc1ccc(-n2ccc(OCCNc3ncnc4scc(Cl)c34)n2)cc1 [Compound 42-4]
more than 80%: inhibition rate against rice blast (rice blast; 25 ppm)

Cc1ccc(-n2ccc(OCCNc3ncnc4scc(Cl)c34)n2)cc1 [Compound 42-57]
more than 80%: inhibition rate against rice blast (rice blast; 8.3 ppm) | inhibition rate against rice blast (rice blast; 25 ppm)

Clc1cccc(-n2ccc(OCCNc3ncnc4scc(Cl)c34)n2)c1 [Compound 42-18]
more than 80%: inhibition rate against rice blast (rice blast; 2.8 ppm) | inhibition rate against rice blast (rice blast; 8.3 ppm) | inhibition rate against rice blast (rice blast; 25 ppm)

FC(F)(F)c1ccc(-n2ccc(OCCNc3ncnc4scc(Cl)c34)n2)cc1 [Compound 42-69]
more than 80%: inhibition rate against rice blast (rice blast; 2.8 ppm) | inhibition rate against rice blast (rice blast; 8.3 ppm) | inhibition rate against rice blast (rice blast; 25 ppm)

Clc1csc2ncnc(NCCOc3ccn(-c4ccccc4)n3)c12 [Compound 42-1]
more than 80%: inhibition rate against rice blast (rice blast; 2.8 ppm) | inhibition rate against rice blast (rice blast; 8.3 ppm) | inhibition rate against rice blast (rice blast; 25 ppm)

CC(COc1ccn(-c2ccc(Cl)cc2)n1)Nc1ncnc(Cl)c1Cl (stereo not shown) [Compound 35-19]
more than 80%: control against wheat powdery mildew (wheat powdery mildew; 400 ppm) | control against cucumber downy mildew (cucumber downy mildew; 12.5 ppm) | control against cucumber downy mildew (cucumber downy mildew; 25 ppm) | control against cucumber downy mildew (cucumber downy mildew; 100 ppm) | control against cucumber downy mildew (cucumber downy mildew; 400 ppm) | inhibition rate against rice blast (rice blast; 25 ppm)

Clc1ccccc1-n1ccc(OCCNc2ncnc3ccccc23)n1 [Compound 40-17]
more than 80%: control against cucumber downy mildew (cucumber downy mildew; 25 ppm) | control against cucumber downy mildew (cucumber downy mildew; 100 ppm)

Clc1cccc(-n2ccc(OCCNc3ncnc4ccccc34)n2)c1 [Compound 40-18]
more than 80%: inhibition rate against rice blast (rice blast; 8.3 ppm) | inhibition rate against rice blast (rice blast; 25 ppm)

FC(F)(F)c1ccc(-n2ccc(OCCCNc3ncnc4scc(Cl)c34)n2)cc1 [Compound 128-69]
more than 80%: inhibition rate against rice blast (rice blast; 8.3 ppm)

Cc1ncnc(NCCOc2ccn(-c3ccc(Cl)cc3)n2)c1Cl [Compound 31-19]
more than 80%: control against cucumber anthracnose (cucumber anthracnose; 25 ppm) | control against cucumber anthracnose (cucumber anthracnose; 100 ppm) | control against cucumber anthracnose (cucumber anthracnose; 400 ppm) | control against cucumber downy mildew (cucumber downy mildew; 25 ppm) | control against cucumber downy mildew (cucumber downy mildew; 100 ppm) | control against cucumber downy mildew (cucumber downy mildew; 400 ppm)

FC(F)c1ncnc(NCCOc2cnn(-c3ccc(Cl)cc3Cl)c2)c1Cl [Compound 59-21]
more than 80%: inhibition rate against rice blast (rice blast; 2.8 ppm) | inhibition rate against rice blast (rice blast; 8.3 ppm) | inhibition rate against rice blast (rice blast; 25 ppm)

FC(F)(F)Oc1ccc(-n2ccc(OCCNc3ncnc4scc(Cl)c34)n2)cc1 [Compound 42-78]
more than 80%: inhibition rate against rice blast (rice blast; 25 ppm)

Fc1ccc(-n2cc(OCCNc3ncnc4scc(Cl)c34)cn2)cc1 [Compound 68-4]
more than 80%: inhibition rate against rice blast (rice blast; 2.8 ppm) | inhibition rate against rice blast (rice blast; 8.3 ppm) | inhibition rate against rice blast (rice blast; 25 ppm)

Cc1ncnc(NCCOc2cnn(-c3ccc(F)cc3)c2)c1Cl [Compound 57-4]
more than 80%: inhibition rate against rice blast (rice blast; 2.8 ppm) | inhibition rate against rice blast (rice blast; 8.3 ppm) | inhibition rate against rice blast (rice blast; 25 ppm)

CCc1ncnc(NC(C)COc2ccn(-c3ccc(Cl)cc3)n2)c1Cl (stereo not shown) [Compound 37-19]
more than 80%: control against wheat powdery mildew (wheat powdery mildew; 6.25 ppm) | control against wheat powdery mildew (wheat powdery mildew; 25 ppm) | control against wheat powdery mildew (wheat powdery mildew; 100 ppm) | control against wheat powdery mildew (wheat powdery mildew; 400 ppm) | control against carmine spider mite (carmine spider mite; 10 ppm) | control against carmine spider mite (carmine spider mite; 100 ppm) | control against carmine spider mite (carmine spider mite; 600 ppm) | control against Green Peach Aphid ([1]; 100 ppm) | control against Green Peach Aphid ([1]; 600 ppm) | control against corn rust (corn rust; 6.25 ppm) | control against corn rust (corn rust; 25 ppm) | control against corn rust (corn rust; 100 ppm) | control against corn rust (corn rust; 400 ppm) | inhibition rate against rice blast (rice blast; 25 ppm)

Clc1ccc(-n2ccc(OCCNc3ncnc4scc(Cl)c34)n2)c(Cl)c1 [Compound 42-21]
more than 80%: inhibition rate against rice blast (rice blast; 2.8 ppm) | inhibition rate against rice blast (rice blast; 8.3 ppm) | inhibition rate against rice blast (rice blast; 25 ppm)
